Experimental findings from patent US20250242041A1 (Seagen, published 2025) are described below.

No constants are given. Whether binding was seen depends on the method and setting. Some binding calls cover weakened binding; strength is not graded here.

Test [1] deals with T1, cyno αvβ6 on 293F:cynoβ6 cells (human;Macaca fascicularis, UniProt P06756 31-1048; A0A2K5TZ36 22-787).
T1 chain 1: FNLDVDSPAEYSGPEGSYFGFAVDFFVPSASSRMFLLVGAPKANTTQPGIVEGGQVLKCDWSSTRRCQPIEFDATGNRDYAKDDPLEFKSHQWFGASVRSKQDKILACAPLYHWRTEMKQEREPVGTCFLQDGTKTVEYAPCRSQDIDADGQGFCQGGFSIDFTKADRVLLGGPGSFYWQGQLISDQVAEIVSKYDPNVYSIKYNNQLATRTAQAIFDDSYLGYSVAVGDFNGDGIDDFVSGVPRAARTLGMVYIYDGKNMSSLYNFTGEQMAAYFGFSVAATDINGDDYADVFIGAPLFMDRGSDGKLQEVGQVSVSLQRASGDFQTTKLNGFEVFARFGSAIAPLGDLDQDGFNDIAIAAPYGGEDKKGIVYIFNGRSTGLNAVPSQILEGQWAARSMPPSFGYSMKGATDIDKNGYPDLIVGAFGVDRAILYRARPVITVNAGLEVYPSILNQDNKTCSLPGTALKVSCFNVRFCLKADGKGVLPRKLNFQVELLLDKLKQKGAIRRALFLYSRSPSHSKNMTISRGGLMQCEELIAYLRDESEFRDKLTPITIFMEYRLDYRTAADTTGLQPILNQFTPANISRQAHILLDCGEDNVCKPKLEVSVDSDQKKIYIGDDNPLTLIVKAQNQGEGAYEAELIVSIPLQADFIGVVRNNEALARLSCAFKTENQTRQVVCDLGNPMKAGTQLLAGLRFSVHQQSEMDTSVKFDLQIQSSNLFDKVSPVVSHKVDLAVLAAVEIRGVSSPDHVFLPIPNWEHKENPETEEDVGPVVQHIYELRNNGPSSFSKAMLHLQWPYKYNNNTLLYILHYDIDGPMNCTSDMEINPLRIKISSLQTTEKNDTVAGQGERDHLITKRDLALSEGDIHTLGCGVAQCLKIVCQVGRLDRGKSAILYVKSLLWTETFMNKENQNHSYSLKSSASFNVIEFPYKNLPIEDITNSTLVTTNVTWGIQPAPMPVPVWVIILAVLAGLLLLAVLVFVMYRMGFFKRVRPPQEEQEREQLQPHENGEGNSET
T1 chain 2: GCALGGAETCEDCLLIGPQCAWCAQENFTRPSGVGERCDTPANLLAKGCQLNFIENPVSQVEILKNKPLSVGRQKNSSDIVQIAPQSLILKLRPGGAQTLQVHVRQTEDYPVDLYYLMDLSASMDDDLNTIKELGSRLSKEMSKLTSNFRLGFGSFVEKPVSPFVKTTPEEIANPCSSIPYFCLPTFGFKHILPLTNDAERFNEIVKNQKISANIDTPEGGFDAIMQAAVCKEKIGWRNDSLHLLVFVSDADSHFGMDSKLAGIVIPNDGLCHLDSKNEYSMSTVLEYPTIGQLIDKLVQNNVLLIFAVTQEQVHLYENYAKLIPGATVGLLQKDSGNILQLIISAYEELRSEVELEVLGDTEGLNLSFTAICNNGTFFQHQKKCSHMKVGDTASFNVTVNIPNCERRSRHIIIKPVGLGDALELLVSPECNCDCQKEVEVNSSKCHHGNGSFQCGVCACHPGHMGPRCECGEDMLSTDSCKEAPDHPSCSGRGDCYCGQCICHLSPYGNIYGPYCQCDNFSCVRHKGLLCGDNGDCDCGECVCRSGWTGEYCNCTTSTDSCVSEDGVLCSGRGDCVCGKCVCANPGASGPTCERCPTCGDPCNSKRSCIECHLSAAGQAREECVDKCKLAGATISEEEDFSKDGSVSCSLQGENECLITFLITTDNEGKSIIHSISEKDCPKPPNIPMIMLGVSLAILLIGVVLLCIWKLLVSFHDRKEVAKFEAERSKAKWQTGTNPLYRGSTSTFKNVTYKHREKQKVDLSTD
Put plainly: saturation binding by flow cytometry on 293F:cynoβ6 cells; also confirmed by competition binding.

For test [2], the target named is T1, cyno αvβ6 on 293F:cynoβ6 cells. Nature of the test: binding of the hybridoma panel to transfected 293F cells.
Test [3] has the same target. Nature of the test: saturation binding by flow cytometry on 293F:cynoβ6 cells.

B1: h2A2 HCLG humanized antibody (antibody, human IgG1, kappa, V domains shown)
VH: QFQLVQSGAEVKKPGASVKVSCKASGYSFTDYNVNWVRQAPGQGLEWIGVINPKYGTTRYNQKFKGRATLTVDKSTSTAYMELSSLRSEDTAVYYCTRGLNAWDYWGQGTLVTVSS
VL: DIQMTQSPSSLSASVGDRVTITCGASENIYGALNWYQQKPGKAPKLLIYGATNLEDGVPSRFSGSGSGRDYTFTISSLQPEDIATYYCQNVLTTPYTFGQGTKLEIKR
notes: Labelled with AlexaFluor-647 in the saturation assay; also called humanized 2A2 HCLG
Consider B1, for which the binding entry in test [1] is “binds”.

B2: murine monoclonal antibody 2A2 (antibody, V domains shown)
VH: EFQLQQSGPELVKPGASVKISCKASGYSFTDYNVNWVKQSNGKSLEWIGVINPKYGTTRYNQKFKGKATLTVDKPSSTAYMQLNSLTSEDSAVYYCTRGLNAWDYWGQGASVTVSS
VL: DIQMTQSPASLSASVGETVTITCGASENIYGALNWYQRKQGKSPQLLIYGATNLADGMSSRFSGSGSGRQYSFKISSLHPDDVATYYCQNVLTTPYTFGGGTKLEIK
notes: Mouse hybridoma IgG; also called m2A2; mouse 2A2
Take B2: the binding result in test [2] and in test [3] was “binds” in each case.
